Experimental data: PubChem BioAssay (EPA / NIEHS)
This list was built around the results that the source calls inconclusive (neither active nor inactive); the mix of calls is not that of the screen. For some assays here: Potencies beside an inconclusive call are fits to weak or partial responses and may not hold up. Active and inactive are the calls of the source. The calls were made as follows: active = hit-call score of the fitted dose curve at least 0.9, where 1 is the maximum; inconclusive = response in the unintended direction; inactive = score below 0.9.

Protein sequences, listed by entry. Tags and fused reporters are not part of them. Lines headed by an entry give the natural chain unless they say otherwise; changes in a name come on top.
UniProt P20813: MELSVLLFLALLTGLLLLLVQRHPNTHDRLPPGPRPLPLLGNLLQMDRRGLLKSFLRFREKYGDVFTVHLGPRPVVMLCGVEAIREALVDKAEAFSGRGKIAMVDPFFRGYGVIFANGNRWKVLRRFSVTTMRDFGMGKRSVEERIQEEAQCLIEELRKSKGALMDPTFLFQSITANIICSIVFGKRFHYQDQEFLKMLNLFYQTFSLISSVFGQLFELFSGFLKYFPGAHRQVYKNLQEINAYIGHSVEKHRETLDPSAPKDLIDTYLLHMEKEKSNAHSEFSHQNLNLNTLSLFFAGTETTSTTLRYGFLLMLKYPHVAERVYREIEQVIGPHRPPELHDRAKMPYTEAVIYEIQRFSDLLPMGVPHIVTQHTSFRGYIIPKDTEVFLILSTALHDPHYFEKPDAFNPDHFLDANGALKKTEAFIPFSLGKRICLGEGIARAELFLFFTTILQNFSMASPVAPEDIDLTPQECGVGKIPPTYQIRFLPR
UniProt P33261, whole entry, looked up: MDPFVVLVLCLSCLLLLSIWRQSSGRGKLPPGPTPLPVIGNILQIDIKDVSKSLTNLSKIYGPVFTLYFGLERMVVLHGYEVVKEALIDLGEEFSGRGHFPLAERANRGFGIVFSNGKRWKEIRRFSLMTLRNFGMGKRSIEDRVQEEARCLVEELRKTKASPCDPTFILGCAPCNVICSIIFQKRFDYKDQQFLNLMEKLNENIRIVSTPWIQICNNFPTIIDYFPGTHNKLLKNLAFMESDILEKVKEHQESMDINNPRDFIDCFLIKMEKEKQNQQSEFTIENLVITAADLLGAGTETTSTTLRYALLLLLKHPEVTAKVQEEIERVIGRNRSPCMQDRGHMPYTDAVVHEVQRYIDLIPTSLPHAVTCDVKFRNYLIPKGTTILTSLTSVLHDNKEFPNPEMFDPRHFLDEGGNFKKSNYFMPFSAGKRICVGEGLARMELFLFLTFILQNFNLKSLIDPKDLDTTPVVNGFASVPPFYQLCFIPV
UniProt Q9UNQ0: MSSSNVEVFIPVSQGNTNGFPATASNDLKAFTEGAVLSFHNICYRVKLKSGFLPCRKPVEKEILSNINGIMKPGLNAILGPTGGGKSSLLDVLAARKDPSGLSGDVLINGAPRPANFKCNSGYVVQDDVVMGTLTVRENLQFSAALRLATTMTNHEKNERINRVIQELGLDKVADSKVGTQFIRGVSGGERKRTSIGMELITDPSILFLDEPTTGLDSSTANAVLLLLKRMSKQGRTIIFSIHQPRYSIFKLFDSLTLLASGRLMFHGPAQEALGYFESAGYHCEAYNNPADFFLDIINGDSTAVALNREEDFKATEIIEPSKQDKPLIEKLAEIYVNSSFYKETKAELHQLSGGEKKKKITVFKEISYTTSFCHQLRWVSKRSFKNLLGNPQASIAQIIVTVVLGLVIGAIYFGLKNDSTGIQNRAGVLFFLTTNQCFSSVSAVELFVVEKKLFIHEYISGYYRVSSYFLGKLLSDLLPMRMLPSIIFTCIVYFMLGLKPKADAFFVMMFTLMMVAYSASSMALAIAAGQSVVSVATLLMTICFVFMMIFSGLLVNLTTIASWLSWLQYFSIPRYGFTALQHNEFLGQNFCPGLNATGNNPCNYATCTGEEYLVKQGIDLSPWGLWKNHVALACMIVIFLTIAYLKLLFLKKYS
UniProt P04406: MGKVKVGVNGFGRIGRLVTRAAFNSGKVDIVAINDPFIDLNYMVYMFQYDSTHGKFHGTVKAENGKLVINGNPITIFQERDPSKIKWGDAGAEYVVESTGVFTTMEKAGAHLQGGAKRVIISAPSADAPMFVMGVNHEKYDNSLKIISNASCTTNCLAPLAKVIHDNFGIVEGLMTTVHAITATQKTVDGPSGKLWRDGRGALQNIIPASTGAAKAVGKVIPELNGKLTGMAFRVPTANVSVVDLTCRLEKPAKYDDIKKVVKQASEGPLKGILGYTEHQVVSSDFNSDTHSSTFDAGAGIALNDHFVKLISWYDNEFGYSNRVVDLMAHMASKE
UniProt P08659, whole entry, looked up: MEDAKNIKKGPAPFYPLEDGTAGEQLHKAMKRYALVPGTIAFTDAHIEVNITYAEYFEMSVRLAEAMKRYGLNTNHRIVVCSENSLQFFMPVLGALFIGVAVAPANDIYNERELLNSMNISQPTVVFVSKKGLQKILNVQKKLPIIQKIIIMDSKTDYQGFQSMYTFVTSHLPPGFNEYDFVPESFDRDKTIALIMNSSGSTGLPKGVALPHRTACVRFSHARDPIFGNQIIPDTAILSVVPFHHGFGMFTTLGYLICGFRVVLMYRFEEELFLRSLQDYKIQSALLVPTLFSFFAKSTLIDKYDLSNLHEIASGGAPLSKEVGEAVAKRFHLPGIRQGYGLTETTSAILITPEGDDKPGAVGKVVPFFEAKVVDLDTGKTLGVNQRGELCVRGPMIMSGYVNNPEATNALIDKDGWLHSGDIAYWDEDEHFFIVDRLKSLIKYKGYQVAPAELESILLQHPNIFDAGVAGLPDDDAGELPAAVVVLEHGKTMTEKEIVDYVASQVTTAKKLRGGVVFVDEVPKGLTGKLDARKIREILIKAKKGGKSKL

Assays:
[1] = read-out: glucuronosyltransferase (UGT1A1), UGT1A1 (gene 54658); assay: CLD_UGT1A1_24hr: CellzDirect (CLD) Gene Expression Assay for glucuronosyltransferase (UGT1A1) at 24 hours (AID 2283696)
In short: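 Primary human hepatocytes from two donor preparations were dosed (0.2% DMSO vehicle) and harvested at 24 h; UGT1A1 mRNA induction was quantified by chemiluminescent qNPA, fitted as gain relative to DMSO.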

[2] = read-out: Cytochrome P450 2B6 (Homo sapiens) (UniProt P20813); assay: CLD_CYP2B6_48hr: CellzDirect (CLD) Gene Expression Assay for xenobiotic metabolism (CYP2B6) at 48 hours (AID 2283699);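 also: actives raise transcript level above DMSO so potency reflects induction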
In short: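 Primary human hepatocytes dosed daily for two days over multiple concentrations, 0.2% DMSO vehicle; CYP2B6 mRNA quantified at 48 h by qNPA chemiluminescence. Induction fitted as gain of signal versus DMSO; cytotoxicity annotated by morphology.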

[3] = read-out: Cytochrome P450 2C19 (Homo sapiens) (UniProt P33261); assay: CLD_CYP2C19_48hr: CellzDirect (CLD) Gene Expression Assay for xenobiotic metabolism (CYP2C19) at 48 hours (AID 2283700)
In short: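 Primary human hepatocytes (two donor preparations) dosed daily for two days, harvested at 48 h; CYP2C19 mRNA induction measured by qNPA chemiluminescence. Gain-of-signal fitted relative to 0.2% DMSO vehicle as baseline.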

[4] = CLD_ACTIN_48hr: CellzDirect (CLD) Gene Expression Assay for Baseline Control (Actin) at 48 hours (AID 2283702)
In short: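 Primary human hepatocytes (two donor preparations) dosed daily for two days with ToxCast chemicals at multiple concentrations versus 0.2% DMSO vehicle; harvested at 48 h. Actin mRNA measured as a background control by quantitative nuclease protection assay with chemiluminescence.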

[5] = read-out: Broad substrate specificity ATP-binding cassette transporter ABCG2 (Homo sapiens) (UniProt Q9UNQ0); assay: CLD_ABCG2_48hr: CellzDirect (CLD) Gene Expression Assay for ABC Transporter (ABCG2) at 48 hours (AID 2283704);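 also: potency for induction of ABCG2 mRNA above the DMSO baseline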
In short: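 Primary human hepatocytes from two donors, dosed daily for 2 days, 0.2% DMSO vehicle, several concentrations. ABCG2 mRNA at 48 h by qNPA chemiluminescence, gain fitted versus DMSO; cytotoxicity flagged by morphology.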

[6] = read-out: Glyceraldehyde-3-phosphate dehydrogenase (Homo sapiens) (UniProt P04406); assay: CLD_GAPDH_48hr: CellzDirect (CLD) Gene Expression Assay for Baseline Control (Glyceraldehyde 3-phosphate dehydrogenase) at 48 hours (AID 2283706)
In short: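 Primary human hepatocytes dosed daily for two days with fresh chemical at multiple concentrations, 0.2% DMSO vehicle; GAPDH mRNA measured at 48 h by quantitative nuclease protection assay with chemiluminescence, fitted upward relative to DMSO as background control.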

[7] = read-out: organic anion transporter (SLCO1B1), SLCO1B1 (gene 10599); assay: CLD_SLCO1B1_48hr: CellzDirect (CLD) Gene Expression Assay for organic anion transporter (SLCO1B1) at 48 hours (AID 2283707)
In short: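 Primary human hepatocytes from two donor preparations dosed daily for two days with multiple concentrations, 0.2% DMSO vehicle. SLCO1B1 mRNA at 48 h by quantitative nuclease protection assay, chemiluminescence; gain-of-signal fitted versus DMSO.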

[8] = read-out: HMG-CoA synthase (HMGCS2), HMGCS2 (gene 3158); assay: CLD_HMGCS2_48hr: CellzDirect (CLD) Gene Expression Assay for HMG-CoA synthase (HMGCS2) at 48 hours (AID 2283711)
In short: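 Primary human hepatocytes from two donors dosed daily for two days, 0.2% DMSO vehicle. HMGCS2 mRNA measured 48 h after dosing by quantitative nuclease protection assay with chemiluminescent read-out; induction fitted relative to DMSO, cytotoxicity flagged by microscopy.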

[9] = target: Luciferin 4-monooxygenase (Photinus pyralis) (UniProt P08659); assay: CCTE_Simmons_QuantiLum_inhib_2: CCTE's Firefly Luciferase Inhibition Assay, Simmons Lab (AID 2283767)
In short: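 Recombinant firefly luciferase (5 ng/well, 200 mM potassium phosphate with 1 mg/ml BSA) was exposed to 8 concentrations from 5 nM to 87.5 uM (final, 0.5% DMSO) for 30 min at 37C in the dark. Loss of luminescence versus DMSO was read after injecting D-luciferin/ATP-analogue reagent.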

[10] = ACEA_ER_AUC_viability: ACEA Biosciences xCELLigence Real-Time Cell Analysis on Estrogen Receptor Agonism for Viability (AID 2283782);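 also: continuous compound exposure with impedance area under curve over 80 h; hit means loss of impedance signal meaning reduced cell growth or viability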
In short: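 T-47D human breast cells in phenol red-free RPMI1640 with 10% charcoal-stripped FBS were dosed with an 8-point 1:4 dilution series from 100 uM top final concentration, in duplicate. Impedance-based growth was followed for 80 h; AUC analysed versus DMSO.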

[11] = CCTE_Shafer_MEA_dev_active_electrodes_number: CCTE's Neural Network Formation Assay for Number of Active Electrodes, Shafer Lab (AID 2284040);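 also: potency for loss of active electrodes versus DMSO so lower counts are hits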
In short: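 Rat cortical primary cultures, 1.5 x 10^5 cells/well, PEI-coated MEA, laminin drop. Continuous exposure DIV 0–12; full media/compound change DIV 5, 9. Readout: electrodes with mean firing ≥5 spikes/min; AUC across days; loss vs DMSO.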

[12] = CCTE_Shafer_MEA_dev_bursting_electrodes_number: CCTE's Neural Network Formation Assay for Number of Bursting Electrodes, Shafer Lab (AID 2284043);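 also: potency is for loss of bursting electrodes relative to DMSO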
In short: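 Primary rat cortical neurons were cultured on PEI-coated 48-well MEA plates (16 electrodes/well) and exposed from plating through day 12, with compound renewed at feeds on DIV 5 and 9. Electrodes bursting ≥1 per 2 min were counted on DIV 5, 7, 9, 12; trapezoidal AUC taken.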

[13] = CCTE_Shafer_MEA_dev_LDH: CCTE's Lactate Dehydrogenase Assay for Cytotoxicity in the Neural Network Formation Assay, Shafer Lab (AID 2284068);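 also: exposure for twelve days from plating with re-dosing on DIV 5 and 9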
In short: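 Primary rat cortical neurons were plated on PEI/laminin MEA plates and exposed from day 0 for twelve days, with compound renewed at DIV 5 and 9. Cytotoxicity was determined by spectrophotometric LDH assay relative to DMSO.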

[14] = CCTE_Mundy_HCI_hNP1_Pro_ResponderAvgInten: CCTE's Proliferation Assay in human neuroprogenitor cells, Mundy Lab (AID 2284224);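 also: human neural progenitor cells hNP1 derived from WA09 embryonic stem cells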
In short: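 Human neuroprogenitors (hNP1, WA09 lineage) receive test chemical after 40 to 44 hours of attachment. A four-hour BrdU pulse begins twenty hours later, followed by fixation and high content imaging; signal is referenced to DMSO controls.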

[15] = CCTE_Mundy_HCI_Cortical_NOG_NeuronCount: CCTE's Neurite Outgrowth Assay in rat cortical cells for Neuron Count, Mundy Lab (AID 2284236);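 also: neurons counted by imaging betaIII-tubulin and Hoechst stained cortical cells; cells exposed to compound for about 48 hours before fixation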
In short: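 Read-out: neuron number by high-content imaging of betaIII-tubulin (Alexa Fluor-488) and Hoechst-labelled rat primary cortical cells.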

[16] = CCTE_Mundy_HCI_hNP1_CellTiter: CCTE's Cell Titer-Glo 2 Assay in human neuroprogenitor cells for Viability, Mundy Lab (AID 2284241);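 also: a hit is a drop in ATP luminescence versus DMSO meaning reduced viability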
In short: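 Measures ATP content in human neural progenitors derived from WA09 embryonic cells. Read-out at 26.5 hours after dosing, with DMSO serving as the negative control and baseline.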

[17] = CCTE_Mundy_HCI_Cortical_Synap_Neur_Matur_NeuronCount: CCTE's Synaptogenesis and Neurite Maturation Assay in rat cortical cells for Neuron Count, Mundy Lab (AID 2284242)
In short: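 Rat primary cortical cells received AraC at DIV 5 to arrest glia, then were dosed with chemicals at DIV 7 through DIV 12. Fixed cells were stained for nuclei, MAP2 and synaptophysin, and neurons were counted by high-content imaging relative to DMSO.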

Measured: AC50

CCOP(=S)(OCC)Oc1cc(C)nc(C(C)C)n1
inconclusive: [3] 35.1 µM | [4] 20 µM | [5] 20 µM | [6] 13.4 µM | [7] 20 µM | [8] 35.2 µM | [11] 15 µM | [12] 15 µM | [13] 0.0284 µM | [15] 0.627 µM | [16] 0.00131 µM
active: [1] 1.92 µM | [2] 1.89 µM | [10] 82 µM
inactive: [9] | [14] | [17]
